Measured values taken from article PMC11249646 (ACS Pharmacology & Translational Science, 2024).

Assay: peptide made by a vendor
Conditions: whole synthesis

| Substance | purity (crude or final not stated) [%] |
| --- | --- |
| acetyl-LVLAMWKVGFFKRNRK-FITC | 95.83 |
| acetyl-RKLFVKVMFWRLNGAK-FITC | 95.37 |
